Literature values as cited in patent US20090018131A1, “QUINAZOLINE DERIVATIVES AS P13 KINASE INHIBITORS” (priority 2007, published 2009).
At least one structure is not confirmed: it was looked up by name or label, or the drawing left a doubt.

Molecular target: CK2 protein kinase
Settings: cited from earlier work

In the case of `O=c1cc(N2CCOCC2)oc2c(-c3ccccc3)cccc12` [LY294002], the IC50 is given as 5 to 10 µM.
